Library screen at single concentrations

From ChEMBL document CHEMBL3988442, “University of Dundee, Small-Polar-MMV Screening Library” (2021).

A: 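Whole-cell growth test on Mycobacterium tuberculosis, read after 3 days in glucose-containing 7H9 medium; the read-out is not stated. Compounds at 50 µM. Higher reads as more growth inhibition (inferred: compounds with an IC50 in retests scored well above the rest). About 69,000 compounds were tested under these conditions; 1.1% (about 760) showed 50% or more at least once.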
B: 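Whole-cell growth test on Mycobacterium tuberculosis, read after 4 days in a medium based on cholesterol and the lipid DPPC; the read-out is not stated. Compounds at 50 µM. Direction is inferred from retests: higher values go with more growth inhibition. Of about 69,000 compounds tested this way, about 370 (0.54%) reached 50% or more in at least one test.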

Values are the deposited “Percent Effect”, in %. How 0% and 100% were set is not recorded. Most values in the screen are low, and negative values occur. The compounds are a random part of those screened. Two or more numbers in one place are separate tests of the same structure; such repeats can differ widely.

Compound: Cc1oc(C)c(C(=O)Nc2ccccn2)c1C
A: -19.16 and -2.27
B: -2.808

Compound: CCCNC(=O)NCc1nc(C)c(C)o1
A: -35.23
B: -3.081

Compound: COCC1CC2(CCN(C(=O)c3cncc(C)c3)CC2)CO1.O=C(O)C(F)(F)F (centres undefined)
A: -20.16 and -5.317
B: -41.03

Compound: O=C(O)C(F)(F)F.[H][C@@]12C[C@H](C(=O)N3CCN(C)CC3)[C@@]([H])(CN(S(=O)(=O)CC(C)C)C1)O2
A: -6.597
B: -17.61

Compound: NC(=O)c1cccc(OCC(=O)N2CCCC(n3cccn3)C2)c1 (centres undefined)
A: 20.37
B: 22.82

Compound: O=C1CC(c2ccccc2C(F)(F)F)c2sc(N3CCOCC3)nc2N1 (centres undefined)
A: 23.28
B: 3.177

Compound: O=C(O)C(F)(F)F.O=C(c1cccnc1)N1CCCC2(CCN(c3ccsc3)C2=O)C1 (centres undefined)
A: -41.31
B: -19.56

Compound: CN(C)CCn1ccnc1C1CCCN(c2ncc(Cl)cc2F)C1 (centres undefined)
A: -9.232
B: -4.629

Compound: CN(C)c1ncc(CN2CCC(c3nnsc3S(C)(=O)=O)CC2)cn1
A: -18.48
B: -1.146

Compound: CC1(C)CC(CN2CCC3(CCC(=O)N(CCO)C3)CC2)CCO1 (centres undefined)
A: 2.439 and -6.112
B: 23.04

Compound: O=S1(=O)NC(C2CCN(Cc3ccccn3)CC2)Nc2ccccc21 (centres undefined)
A: -0.1801
B: -5.172

Compound: Cc1cccc(-c2nccnc2C2CCN(C)CC2)c1C
A: -8.182
B: -1.831 and 0.09837

Compound: CCNC(=O)NC(c1ccc(C)cc1)c1cccc(S(C)(=O)=O)c1 (centres undefined)
A: -4.339
B: 0.6959

Compound: Cc1ccc(C(=O)NCCCn2cccn2)c(=O)[nH]1
A: -0.1819
B: -21.44

Compound: Cc1cnn(C2CCCN(C(=O)CCCn3ccnc3C)C2)c1 (centres undefined)
A: -20.8 and -1.767
B: -17.48

Compound: Cc1nccn1CCC(=O)N1CCCN(c2ccccc2)CC1
A: 1.258 and 8.77
B: -1.698

Compound: Cc1nc(CN2CCN(C(=O)c3sccc3C3CC3)CC2)oc1C
A: -5.625
B: -23.1

Compound: O=C(O)C(F)(F)F.O=C(O)C(F)(F)F.c1cncc(CN2CCOC(c3ncn4c(C5CC5)cccc34)C2)c1 (centres undefined)
A: -3.479 and -2.746
B: 12.17

Compound: CC(C)CN1CCN(C)C2(CCN(Cc3ccsc3)CC2)C1=O.O=C(O)C(F)(F)F.O=C(O)C(F)(F)F
A: -9.366
B: 5.473

Compound: CN1CCCCC1c1ncc2c(n1)CCN(Cc1ccc(Cl)c(F)c1)C2 (centres undefined)
A: 48.75
B: 19.29

Compound: O=C(NC1CC1)c1cc(C(F)(F)F)cc(C(F)(F)F)n1
A: -4.333 and -21.87
B: -28.02

Compound: Cc1csc(NC(=O)c2ccc(NC(=O)N3CCOCC3)cc2)n1
A: 6.458 and -3.989
B: 14.44

Compound: O=C(COCC(=O)N(c1ccccc1)c1ccccc1)N1CCCC1
A: 1.302 and 6.191
B: -4.757

2 of the entries, repeated:

| Compound | A | B |
|---|---|---|
| `Cc1nc(CN2CCN(C(=O)c3sccc3C3CC3)CC2)oc1C` | -5.625 | -23.1 |
| `O=C1CC(c2ccccc2C(F)(F)F)c2sc(N3CCOCC3)nc2N1` (centres undefined) | 23.28 | 3.177 |